The target in the assay is T1, thyroid hormone receptor interactor 13 (TRIP13) (UniProt Q15645).
T1 sequence: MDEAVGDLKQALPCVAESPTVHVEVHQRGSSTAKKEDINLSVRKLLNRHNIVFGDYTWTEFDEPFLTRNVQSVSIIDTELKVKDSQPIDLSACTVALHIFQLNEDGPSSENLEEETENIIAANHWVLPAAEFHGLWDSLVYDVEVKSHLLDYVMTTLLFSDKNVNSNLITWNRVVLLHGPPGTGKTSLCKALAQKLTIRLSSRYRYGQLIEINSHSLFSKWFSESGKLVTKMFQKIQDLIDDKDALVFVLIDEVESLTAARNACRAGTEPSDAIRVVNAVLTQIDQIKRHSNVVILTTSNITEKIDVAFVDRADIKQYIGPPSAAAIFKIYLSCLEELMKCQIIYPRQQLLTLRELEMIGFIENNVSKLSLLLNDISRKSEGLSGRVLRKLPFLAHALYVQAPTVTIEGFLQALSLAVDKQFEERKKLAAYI
In words: affinity purification with mass spectrometry; IP from lysates of A2058-control and TRIP13-overexpressing A2058 cells; primary antibody and protein A/G beads, 4°C for 4 h; LC-MS/MS (EASY-nLC 1200, MaxQuant).

Protein sequences, listed by entry. Tags and fused reporters are not part of them.
UniProt P21333: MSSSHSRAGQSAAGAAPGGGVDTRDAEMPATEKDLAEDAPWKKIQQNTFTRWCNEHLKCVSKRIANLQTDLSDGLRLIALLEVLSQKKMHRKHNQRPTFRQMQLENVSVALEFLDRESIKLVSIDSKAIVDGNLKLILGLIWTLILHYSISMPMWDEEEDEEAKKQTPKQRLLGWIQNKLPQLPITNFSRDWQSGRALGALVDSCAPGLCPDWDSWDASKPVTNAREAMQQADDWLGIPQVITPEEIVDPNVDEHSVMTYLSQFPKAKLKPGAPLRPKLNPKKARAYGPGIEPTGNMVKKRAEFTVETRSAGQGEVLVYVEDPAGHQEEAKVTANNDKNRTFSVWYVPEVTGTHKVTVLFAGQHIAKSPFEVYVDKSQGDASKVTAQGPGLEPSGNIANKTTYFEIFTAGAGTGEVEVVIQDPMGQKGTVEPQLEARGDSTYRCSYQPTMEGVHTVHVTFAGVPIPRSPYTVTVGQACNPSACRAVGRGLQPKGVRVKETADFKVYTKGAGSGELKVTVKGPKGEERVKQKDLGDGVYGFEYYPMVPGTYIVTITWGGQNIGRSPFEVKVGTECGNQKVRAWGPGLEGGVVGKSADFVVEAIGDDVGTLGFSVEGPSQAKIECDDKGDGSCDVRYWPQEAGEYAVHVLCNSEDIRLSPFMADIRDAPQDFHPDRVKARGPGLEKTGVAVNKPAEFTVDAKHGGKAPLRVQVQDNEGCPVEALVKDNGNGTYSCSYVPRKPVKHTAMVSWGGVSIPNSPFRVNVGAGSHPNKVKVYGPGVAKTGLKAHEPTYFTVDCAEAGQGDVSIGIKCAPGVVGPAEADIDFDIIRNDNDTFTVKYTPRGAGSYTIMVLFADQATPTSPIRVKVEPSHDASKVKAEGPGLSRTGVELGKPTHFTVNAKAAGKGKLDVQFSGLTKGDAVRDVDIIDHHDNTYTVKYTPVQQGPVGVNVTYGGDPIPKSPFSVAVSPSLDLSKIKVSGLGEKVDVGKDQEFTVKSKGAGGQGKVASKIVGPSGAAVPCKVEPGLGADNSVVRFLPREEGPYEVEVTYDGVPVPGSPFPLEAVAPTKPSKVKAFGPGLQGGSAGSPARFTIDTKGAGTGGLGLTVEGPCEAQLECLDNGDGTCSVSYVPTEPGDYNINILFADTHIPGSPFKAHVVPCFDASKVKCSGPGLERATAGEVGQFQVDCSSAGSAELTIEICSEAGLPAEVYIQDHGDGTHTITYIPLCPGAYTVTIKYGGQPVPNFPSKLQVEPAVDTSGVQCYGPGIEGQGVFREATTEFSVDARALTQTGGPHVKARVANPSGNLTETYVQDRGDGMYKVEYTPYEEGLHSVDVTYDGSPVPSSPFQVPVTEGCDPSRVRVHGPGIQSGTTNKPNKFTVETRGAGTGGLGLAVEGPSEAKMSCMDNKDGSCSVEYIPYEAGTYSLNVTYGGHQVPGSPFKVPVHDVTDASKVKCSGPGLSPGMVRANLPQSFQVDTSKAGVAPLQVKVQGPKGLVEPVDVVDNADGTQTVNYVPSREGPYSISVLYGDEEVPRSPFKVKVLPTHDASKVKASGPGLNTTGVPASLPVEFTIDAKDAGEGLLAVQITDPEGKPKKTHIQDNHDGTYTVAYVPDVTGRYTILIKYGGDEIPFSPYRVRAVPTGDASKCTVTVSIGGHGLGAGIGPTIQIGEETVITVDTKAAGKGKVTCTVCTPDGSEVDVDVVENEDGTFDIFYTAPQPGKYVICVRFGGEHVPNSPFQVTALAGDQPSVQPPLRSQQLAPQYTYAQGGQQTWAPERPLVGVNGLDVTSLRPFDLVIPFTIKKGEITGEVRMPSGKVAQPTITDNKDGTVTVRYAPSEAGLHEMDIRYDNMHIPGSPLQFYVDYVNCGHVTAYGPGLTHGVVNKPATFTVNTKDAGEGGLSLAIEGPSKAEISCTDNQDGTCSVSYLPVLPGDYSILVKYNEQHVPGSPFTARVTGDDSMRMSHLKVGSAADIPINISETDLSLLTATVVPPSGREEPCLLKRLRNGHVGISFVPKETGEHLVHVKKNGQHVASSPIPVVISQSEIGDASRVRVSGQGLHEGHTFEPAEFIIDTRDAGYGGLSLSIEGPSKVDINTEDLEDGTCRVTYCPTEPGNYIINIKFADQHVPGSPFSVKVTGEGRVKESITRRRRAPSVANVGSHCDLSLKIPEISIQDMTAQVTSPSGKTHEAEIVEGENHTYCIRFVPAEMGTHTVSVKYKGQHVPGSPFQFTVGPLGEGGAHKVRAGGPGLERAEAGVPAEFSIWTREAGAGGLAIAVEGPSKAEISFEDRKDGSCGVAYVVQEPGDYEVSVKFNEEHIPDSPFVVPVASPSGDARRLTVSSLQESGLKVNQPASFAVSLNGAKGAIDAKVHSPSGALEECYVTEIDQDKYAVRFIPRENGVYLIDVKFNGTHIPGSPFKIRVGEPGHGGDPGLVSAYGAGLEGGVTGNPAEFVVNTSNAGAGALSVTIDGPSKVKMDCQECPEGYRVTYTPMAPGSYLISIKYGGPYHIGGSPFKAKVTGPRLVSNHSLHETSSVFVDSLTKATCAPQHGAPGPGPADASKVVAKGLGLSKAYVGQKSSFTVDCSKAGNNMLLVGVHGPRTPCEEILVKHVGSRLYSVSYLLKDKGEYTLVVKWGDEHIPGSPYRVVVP

These are yes or no findings as the source states them, for the method shown. In cells and extracts the contact can be indirect. These calls come from enrichment with a bait or labelling near it, and not all partners need be listed.

For “filamin A (FLNA) (from UniProt P21333 1-2647)”, the binding result was “binds”.

B1: DDX46 (protein, UniProt Q7L014 1-1031)
chain: MGRESRHYRKRSASRGRSGSRSRSRSPSDKRSKRGDDRRSRSRDRDRRRERSRSRDKRRSRSRDRKRLRRSRSRERDRSRERRRSRSRDRRRSRSRSRGRRSRSSSPGNKSKKTENRSRSKEKTDGGESSKEKKKDKDDKEDEKEKDAGNFDQNKLEEEMRKRKERVEKWREEQRKKAMENIGELKKEIEEMKQGKKWSLEDDDDDEDDPAEAEKEGNEMEGEELDPLDAYMEEVKEEVKKFNMRSVKGGGGNEKKSGPTVTKVVTVVTTKKAVVDSDKKKGELMENDQDAMEYSSEEEEVDLQTALTGYQTKQRKLLEPVDHGKIEYEPFRKNFYVEVPELAKMSQEEVNVFRLEMEGITVKGKGCPKPIKSWVQCGISMKILNSLKKHGYEKPTPIQTQAIPAIMSGRDLIGIAKTGSGKTIAFLLPMFRHIMDQRSLEEGEGPIAVIMTPTRELALQITKECKKFSKTLGLRVVCVYGGTGISEQIAELKRGAEIIVCTPGRMIDMLAANSGRVTNLRRVTYVVLDEADRMFDMGFEPQVMRIVDNVRPDRQTVMFSATFPRAMEALARRILSKPIEVQVGGRSVVCSDVEQQVIVIEEEKKFLKLLELLGHYQESGSVIIFVDKQEHADGLLKDLMRASYPCMSLHGGIDQYDRDSIINDFKNGTCKLLVATSVAARGLDVKHLILVVNYSCPNHYEDYVHRAGRTGRAGNKGYAYTFITEDQARYAGDIIKALELSGTAVPPDLEKLWSDFKDQQKAEGKIIKKSSGFSGKGFKFDETEQALANERKKLQKAALGLQDSDDEDAAVDIDEQIESMFNSKKRVKDMAAPGTSSVPAPTAGNAEKLEIAKRLALRINAQKNLGIESQDVMQQATNAILRGGTILAPTVSAKTIAEQLAEKINAKLNYVPLEKQEEERQDGGQNESFKRYEEELEINDFPQTARWKVTSKEALQRISEYSEAAITIRGTYFPPGKEPKEGERKIYLAIESANELAVQKAKAEITRLIKEELIRLQNSYQPTNKGRYKVL
For B1, the binding result is “binds”.

The record behind these values is publication PMC9578791.
